{
  "source": "paper PMC7210939",
  "about": "“ABCG2 transports anticancer drugs via a closed-to-open switch” (Nature Communications, 2020)",
  "binders": {"B1": {"name": "Human ABCG2, nanodisc reconstituted, Q9UNQ0 1-655 (protein)", "chain": "MSSSNVEVFIPVSQGNTNGFPATASNDLKAFTEGAVLSFHNICYRVKLKSGFLPCRKPVEKEILSNINGIMKPGLNAILGPTGGGKSSLLDVLAARKDPSGLSGDVLINGAPRPANFKCNSGYVVQDDVVMGTLTVRENLQFSAALRLATTMTNHEKNERINRVIQELGLDKVADSKVGTQFIRGVSGGERKRTSIGMELITDPSILFLDEPTTGLDSSTANAVLLLLKRMSKQGRTIIFSIHQPRYSIFKLFDSLTLLASGRLMFHGPAQEALGYFESAGYHCEAYNNPADFFLDIINGDSTAVALNREEDFKATEIIEPSKQDKPLIEKLAEIYVNSSFYKETKAELHQLSGGEKKKKITVFKEISYTTSFCHQLRWVSKRSFKNLLGNPQASIAQIIVTVVLGLVIGAIYFGLKNDSTGIQNRAGVLFFLTTNQCFSSVSAVELFVVEKKLFIHEYISGYYRVSSYFLGKLLSDLLPMRMLPSIIFTCIVYFMLGLKPKADAFFVMMFTLMMVAYSASSMALAIAAGQSVVSVATLLMTICFVFMMIFSGLLVNLTTIASWLSWLQYFSIPRYGFTALQHNEFLGQNFCPGLNATGNNPCNYATCTGEEYLVKQGIDLSPWGLWKNHVALACMIVIFLTIAYLKLLFLKKYS"}, "B2": {"name": "Wild-type human ABCG2 with an N-terminal GFP tag, Q9UNQ0 1-655 (protein)", "chain": "B1 chain"}, "B3": {"name": "GFP-ABCG2 Val534Cys in a Cys603Ser background (protein, UniProt Q9UNQ0 1-655)", "chain": "B1 chain with V534C, C603S"}, "B4": {"name": "GFP-ABCG2 Ala537Cys in a Cys603Ser background (protein, UniProt Q9UNQ0 1-655)", "chain": "B1 chain with A537C, C603S"}},
  "key": {"[1]": {"molecular_target": "T1, Human ABCG2, nanodisc reconstituted (human), Q9UNQ0", "T1 chain": "B1 chain", "assay": "cryo-EM structure; single-particle cryo-EM of nanodisc reconstituted ABCG2 (~1 mg/mL, 25 mM Tris pH 8, 150 mM NaCl), apo or with 75 uM imatinib, MXN or SN38; C2 symmetry applied; both purified", "details": "remark: other sources report otherwise"}, "[2]": {"molecular_target": "T2, Wild-type human ABCG2 with an N-terminal GFP tag (human), Q9UNQ0", "T2 chain": "B1 chain", "assay": "cross-linking; disulfide cross-linking in intact HEK293F cells, native disulfide or oxidation with 300 uM copper phenanthroline for 45 min, with or without Ko143, orthovanadate, imatinib, MXN or SN38; non-reducing SDS-PAGE with in-gel GFP fluorescence", "details": "remark: other sources report otherwise"}, "[3]": {"molecular_target": "GFP-ABCG2 Val534Cys in a Cys603Ser background (human) (UniProt Q9UNQ0)", "assay": "cross-linking; disulfide cross-linking in intact HEK293F cells, native disulfide or oxidation with 300 uM copper phenanthroline for 45 min, with or without Ko143, orthovanadate, imatinib, MXN or SN38; non-reducing SDS-PAGE with in-gel GFP fluorescence"}, "[4]": {"molecular_target": "GFP-ABCG2 Ala537Cys in a Cys603Ser background (human) (UniProt Q9UNQ0)", "assay": "cross-linking; disulfide cross-linking in intact HEK293F cells, native disulfide or oxidation with 300 uM copper phenanthroline for 45 min, with or without Ko143, orthovanadate, imatinib, MXN or SN38; non-reducing SDS-PAGE with in-gel GFP fluorescence"}},
  "note": "Numbering of substitutions follows the chain as printed. Results are given in words; binding and its absence hold for the method and conditions named. For some of these results: In cells and extracts the contact can be indirect. Some entries that bind do so weakly or less than the wild type. For some of these results: Where a sequence is shown, tags or fusion partners need not be part of it.",
  "data": [
    {"binder": "B1", "values": [
      {"measurement": "binding", "setting": "[1]", "value": "binds"}
    ]},
    {"binder": "B2", "values": [
      {"measurement": "binding", "setting": "[2]", "value": "binds"}
    ]},
    {"binder": "B3", "values": [
      {"measurement": "binding", "setting": "[3]", "value": "binds"}
    ]},
    {"binder": "B4", "values": [
      {"measurement": "binding", "setting": "[4]", "value": "binds"}
    ]}
  ]
}
